These are yes or no findings as the source states them, for the method shown. In cells and extracts the contact can be indirect. A result given as binding can be weak or reduced; the word gives no strength. For some assays here: Sequences can lack the tags named with a protein.

Experiment [1] has as its target T1, TIR1-VENUS (pTIR1:gTIR1-VENUS plants) (Arabidopsis thaliana) (UniProt Q570C0).
T1 sequence: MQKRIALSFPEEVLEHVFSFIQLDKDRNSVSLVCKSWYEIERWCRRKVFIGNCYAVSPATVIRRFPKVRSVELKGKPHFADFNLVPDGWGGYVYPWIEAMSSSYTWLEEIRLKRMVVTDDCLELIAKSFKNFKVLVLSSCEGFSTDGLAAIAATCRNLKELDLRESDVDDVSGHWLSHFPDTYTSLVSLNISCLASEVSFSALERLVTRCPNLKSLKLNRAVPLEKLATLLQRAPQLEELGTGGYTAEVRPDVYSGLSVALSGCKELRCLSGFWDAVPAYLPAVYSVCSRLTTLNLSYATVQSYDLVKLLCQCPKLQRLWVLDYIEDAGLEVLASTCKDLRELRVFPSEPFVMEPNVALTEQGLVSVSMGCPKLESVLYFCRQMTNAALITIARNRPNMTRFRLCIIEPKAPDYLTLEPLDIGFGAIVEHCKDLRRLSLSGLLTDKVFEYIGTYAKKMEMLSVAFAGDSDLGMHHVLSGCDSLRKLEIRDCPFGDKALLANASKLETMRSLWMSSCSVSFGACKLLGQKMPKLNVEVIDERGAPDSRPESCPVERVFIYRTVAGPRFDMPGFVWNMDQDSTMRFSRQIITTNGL
Briefly: co-IP; same procedure with 4 ug anti-GFP antibody; total protein from 7-day-old pTIR1:gTIR1-VENUS seedlings; blots with anti-GFP, anti-HSP90, anti-SGT1.

Experiment [2] addresses T2, TIR1-Myc (pDEX:TIR1-Myc plants) (Arabidopsis thaliana) (UniProt Q570C0).
T2 sequence: T1 sequence
Nature of the experiment: co-IP; anti-Myc antibody crosslinked to Protein G Dynabeads; 2 mg total protein from 7-day-old pGVG:TIR1-Myc seedlings treated with or without 30 uM dexamethasone for 24 h; 4 h at 4 °C; blots with anti-Myc, anti-HSP90, anti-SGT1.

With “HSP90 (endogenous, Arabidopsis seedlings)”, the binding entry in experiment [1] and in experiment [2] was “binds” throughout.

(Values after article PMC4728404.)
